Values from PubChem BioAssay AID743121 (NCATS, 2013)

Test: 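Knock-downs that sensitise breast cancer cells to camptothecin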 (primary screen)
Cell system: MDA-MB-231 cells, a human breast cancer line
Reagents: single siRNA against human genes, 20 nM siRNA (0.8 pmol per well)
Timing: 120 h (drug added 48 h after transfection, read 72 h later)
Challenge: camptothecin 20 nM (about EC30) for 72 h; vehicle 0.1% DMSO in parallel plates
Read-out: 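Cell viability by ATP luminescence (CellTiter-Glo) as % of non-targeting siRNA wells, and the log2 ratio of viability without drug over viability with camptothecin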
Reading the numbers: log2 vehicle/camptothecin viability: higher = stronger sensitisation to camptothecin; viability with camptothecin and viability without drug: higher = more viable cells
Rule for the call: 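Each gene scored by redundant siRNA activity (RSA) over its individual siRNA ratios; a gene is called active at p < 0.001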
The deposit covers about 26,000 reagents; this is a random part of them. 167 of all reagents (0.63%) count as active. 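Calls are per gene from RSA p-values that are not deposited; an individual active-marked siRNA can sensitise only weakly.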 Reagents against one gene are numbered here.

gene,siRNA no.,log2 vehicle/camptothecin viability,viability with camptothecin (% of control),viability without drug (% of control),outcome
BMP15 (GeneID 9210),1,-0.255,71.2,59.7,inactive
BMP15 (GeneID 9210),2,-0.214,106,91.1,inactive
BMP15 (GeneID 9210),3,0.232,81.5,95.6,inactive
BMP15 (GeneID 9210),4,0.382,64,83.4,inactive
TCF19 (GeneID 6941),1,0.268,69.8,84,inactive
TCF19 (GeneID 6941),2,0.27,48.1,58,inactive
TCF19 (GeneID 6941),3,0.036,65.1,66.7,inactive
HDAC3 (GeneID 8841),1,-0.206,29.6,25.7,inactive
HDAC3 (GeneID 8841),2,-0.0507,66.6,64.3,inactive
HDAC3 (GeneID 8841),3,0.381,63.1,82.2,inactive
HDAC3 (GeneID 8841),4,-0.186,99.4,87.4,inactive
ADCYAP1R1 (GeneID 117),1,-0.718,120,73,inactive
ADCYAP1R1 (GeneID 117),2,0.474,14.8,20.5,inactive
ADCYAP1R1 (GeneID 117),3,-0.203,81.4,70.7,inactive
ADCYAP1R1 (GeneID 117),4,0.165,82.3,92.2,inactive
SCARF2 (GeneID 91179),1,-0.529,82.9,57.4,inactive
SCARF2 (GeneID 91179),2,0.716,39.1,64.2,inactive
SCARF2 (GeneID 91179),3,-0.242,66.5,56.3,inactive
PGPEP1L (GeneID 145814),1,-0.0718,88,83.7,inactive
PGPEP1L (GeneID 145814),2,-0.505,72.9,51.4,inactive
PGPEP1L (GeneID 145814),3,-0.197,74.7,65.2,inactive
PGPEP1L (GeneID 145814),4,0.129,40.6,44.4,inactive
EIF2AK2 (GeneID 5610),1,-0.325,115,91.5,inactive
EIF2AK2 (GeneID 5610),2,-0.298,75.4,61.4,inactive
EIF2AK2 (GeneID 5610),3,-0.111,105,97.5,inactive
EIF2AK2 (GeneID 5610),4,0.196,34.4,39.4,inactive
KLC1 (GeneID 3831),1,0.237,78,91.9,inactive
KLC1 (GeneID 3831),2,-0.417,61.7,46.2,inactive
KLC1 (GeneID 3831),3,0.853,25.8,46.6,inactive
KLC1 (GeneID 3831),4,-0.397,103,78.6,inactive
IMPG1 (GeneID 3617),1,0.0534,83.7,86.8,inactive
IMPG1 (GeneID 3617),2,0.0166,15.9,16.1,inactive
IMPG1 (GeneID 3617),3,1.84,11.6,41.5,inactive
IMPG1 (GeneID 3617),4,0.000762,37.5,37.5,inactive
CDKN3 (GeneID 1033),1,-0.241,127,108,inactive
CDKN3 (GeneID 1033),2,0.663,42.3,67,inactive
CDKN3 (GeneID 1033),3,-0.236,73.4,62.4,inactive
CDKN3 (GeneID 1033),4,0.0423,69.3,71.4,inactive
ADAM28 (GeneID 10863),1,-0.324,89.1,71.2,inactive
ADAM28 (GeneID 10863),2,-0.333,73.6,58.4,inactive
ADAM28 (GeneID 10863),3,-0.352,94.5,74.1,inactive
ADAM28 (GeneID 10863),4,-0.608,54.7,35.9,inactive
CUL9 (GeneID 23113),1,-0.0744,108,103,inactive
CUL9 (GeneID 23113),2,0.186,99.8,113,inactive
CUL9 (GeneID 23113),3,0.139,73.1,80.5,inactive
CDC50A (GeneID 55754),1,-0.106,41.3,38.4,inactive
CDC50A (GeneID 55754),2,-0.178,58.6,51.7,inactive
CDC50A (GeneID 55754),3,0.147,31.6,35,inactive
CDC50A (GeneID 55754),4,0.276,58.8,71.1,inactive
CNR1 (GeneID 1268),1,0.219,51.4,59.8,inactive
CNR1 (GeneID 1268),2,-0.251,82.3,69.2,inactive
CNR1 (GeneID 1268),3,-0.697,67.6,41.7,inactive
CNR1 (GeneID 1268),4,-0.0288,92.4,90.6,inactive
INPP5E (GeneID 56623),1,-0.515,94.5,66.1,inactive
INPP5E (GeneID 56623),2,0.0651,14.7,15.4,inactive
INPP5E (GeneID 56623),3,-0.113,106,97.9,inactive
INPP5E (GeneID 56623),4,-0.338,21,16.6,inactive
PLXNA3 (GeneID 55558),1,-0.049,111,107,inactive
PLXNA3 (GeneID 55558),2,-0.256,97,81.2,inactive
PLXNA3 (GeneID 55558),3,-0.301,55.4,45,inactive
PLXNA3 (GeneID 55558),4,-0.0108,96.1,95.4,inactive
TGFB3 (GeneID 7043),1,-0.238,98.3,83.3,inactive
TGFB3 (GeneID 7043),2,-0.146,99.8,90.2,inactive
TGFB3 (GeneID 7043),3,-0.299,59.2,48.1,inactive
TGFB3 (GeneID 7043),4,0.243,27.8,32.9,inactive
GDF9 (GeneID 2661),1,-0.153,128,115,inactive
GDF9 (GeneID 2661),2,-0.247,112,94,inactive
GDF9 (GeneID 2661),3,-0.311,74.5,60,inactive
GDF9 (GeneID 2661),4,0.277,54.4,65.9,inactive
ALPK2 (GeneID 115701),1,-0.619,84.5,55,inactive
ALPK2 (GeneID 115701),2,0.129,89.9,98.3,inactive
ALPK2 (GeneID 115701),3,0.107,34.5,37.1,inactive
ALPK2 (GeneID 115701),4,0.172,72.3,81.4,inactive
USP12 (GeneID 219333),1,-0.101,112,105,inactive
USP12 (GeneID 219333),2,-0.537,61.8,42.6,inactive
USP12 (GeneID 219333),3,-0.316,129,103,inactive
USP12 (GeneID 219333),4,0.0322,96.3,98.5,inactive
JAM2 (GeneID 58494),1,0.402,59.6,78.8,inactive
JAM2 (GeneID 58494),2,-0.0568,53.5,51.4,inactive
JAM2 (GeneID 58494),3,-0.282,105,86.2,inactive
JAM2 (GeneID 58494),4,-0.272,108,89.2,inactive
CDH1 (GeneID 999),1,0.1,62.8,67.3,inactive
CDH1 (GeneID 999),2,-0.216,62.3,53.6,inactive
CDH1 (GeneID 999),3,-0.0126,95.1,94.3,inactive
CDH1 (GeneID 999),4,-0.27,104,86.2,inactive
IL17RE (GeneID 132014),1,-0.0536,87.5,84.3,inactive
IL17RE (GeneID 132014),2,-0.323,86,68.8,inactive
IL17RE (GeneID 132014),3,0.191,56.4,64.4,inactive
IL17RE (GeneID 132014),4,-0.0358,42.2,41.2,inactive

Single entries from the list.
PGPEP1L (GeneID 145814) #2, log2 vehicle/camptothecin viability → -0.505
Under “viability without drug (% of control)”, HDAC3 (GeneID 8841) #3 has 82.2
For “viability with camptothecin (% of control)”, TCF19 (GeneID 6941) #2 shows 48.1
Entry of CDH1 (GeneID 999) #2 in “viability with camptothecin (% of control)”: 62.3
